Data: paper PMC6546356
These are yes or no findings as the source states them, for the method shown. In cells and extracts the contact can be indirect. Some results given as binding are weak or reduced against the parent protein; the word gives no strength. Tags and fused reporters may be left off the sequences shown.

T1: Cascade subunit Cse2 (CasB) with Streptactin-Tag II (E. coli) (UniProt P76632)
T1 sequence: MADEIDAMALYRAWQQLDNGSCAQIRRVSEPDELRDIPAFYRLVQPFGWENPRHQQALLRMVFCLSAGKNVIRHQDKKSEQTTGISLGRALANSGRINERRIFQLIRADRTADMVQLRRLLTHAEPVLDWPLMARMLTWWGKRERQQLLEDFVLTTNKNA

B1: Cascade subunit Cse1 (protein, UniProt Q46901 1-502)
chain: MNLLIDNWIPVRPRNGGKVQIINLQSLYCSRDQWRLSLPRDDMELAALALLVCIGQIIAPAKDDVEFRHRIMNPLTEDEFQQLIAPWIDMFYLNHAEHPFMQTKGVKANDVTPMEKLLAGVSGATNCAFVNQPGQGEALCGGCTAIALFNQANQAPGFGGGFKSGLRGGTPVTTFVRGIDLRSTVLLNVLTLPRLQKQFPNESHTENQPTWIKPIKSNESIPASSIGFVRGLFWQPAHIELCDPIGIGKCSCCGQESNLRYTGFLKEKFTFTVNGLWPHPHSPCLVTVKKGEVEEKFLAFTTSAPSWTQISRVVVDKIIQNENGNRVAAVVNQFRNIAPQSPLELIMGGYRNNQASILERRHDVLMFNQGWQQYGNVINEIVTVGLGYKTALRKALYTFAEGFKNKDFKGAGVSVHETAERHFYRQSELLIPDVLANVNFSQADEVIADLRDKLHQLCEMLFNQSVAPYAHHPKLISTLALARATLYKHLRELKPQGGPSNG
B2: Cascade subunit Cas7 (protein, UniProt Q46899 1-363)
chain: MSNFINIHVLISHSPSCLNRDDMNMQKDAIFGGKRRVRISSQSLKRAMRKSGYYAQNIGESSLRTIHLAQLRDVLRQKLGERFDQKIIDKTLALLSGKSVDEAEKISADAVTPWVVGEIAWFCEQVAKAEADNLDDKKLLKVLKEDIAAIRVNLQQGVDIALSGRMATSGMMTELGKVDGAMSIAHAITTHQVDSDIDWFTAVDDLQEQGSAHLGTQEFSSGVFYRYANINLAQLQENLGGASREQALEIATHVVHMLATEVPGAKQRTYAAFNPADMVMVNFSDMPLSMANAFEKAVKAKDGFLQPSIQAFNQYWDRVANGYGLNGAAAQFSLSDVDPITAQVKQMPTLEQLKSWVRNNGEA
B3: Cascade subunit Cas5 (protein, UniProt Q46898 1-224)
chain: MRSYLILRLAGPMQAWGQPTFEGTRPTGRFPTRSGLLGLLGACLGIQRDDTSSLQALSESVQFAVRCDELILDDRRVSVTGLRDYHTVLGAREDYRGLKSHETIQTWREYLCDASFTVALWLTPHATMVISELEKAVLKPRYTPYLGRRSCPLTHPLFLGTCQASDPQKALLNYEPVGGDIYSEESVTGHHLKFTARDEPMITLPRQFASREWYVIKGGMDVSQ
B4: Cascade subunit Cas6e (protein, UniProt Q46897 1-199)
chain: MYLSKVIIARAWSRDLYQLHQGLWHLFPNRPDAARDFLFHVEKRNTPEGCHVLLQSAQMPVSTAVATVIKTKQVEFQLQVGVPLYFRLRANPIKTILDNQKRLDSKGNIKRCRVPLIKEAEQIAWLQRKLGNAARVEDVHPISERPQYFSGDGKSGKIQTVCFEGVLTINDAPALIDLVQQGIGPAKSMGCGLLSLAPL

These binders were tested against T1, Cascade subunit Cse2 (CasB) with Streptactin-Tag II (E. coli) (assay: pull-down + SEC; co-purification of Cascade lacking crRNA (Cascade-crZERO); stable during purification, gel filtration peak at the same position as Cascade-crRNA1).

binding, binds:
B1, B2, B3, B4

What follows are binders tested against T1, Cascade subunit Cse2 (CasB) with Streptactin-Tag II (E. coli) (assay: pull-down + SEC; co-purification of Cascade with crRNA1: subunits and crRNA1 co-expressed in BL21 AI; soluble lysate over StrepTrap column by the tag on Cse2, eluted with 2.5 mM desthiobiotin (100 mM Tris pH 8.0, 150 mM NaCl, 1 mM EDTA), then HiPrep Sephacryl S-300 HR).

binding, binds:
B1, B2, B3, B4
